From publication PMC6026378 come the findings set out here.

By UniProt entry, the sequences of proteins in these tests, tags left out. Where a name states a change or a piece, a line headed by the entry shows the natural chain unless it says otherwise.
UniProt P13608: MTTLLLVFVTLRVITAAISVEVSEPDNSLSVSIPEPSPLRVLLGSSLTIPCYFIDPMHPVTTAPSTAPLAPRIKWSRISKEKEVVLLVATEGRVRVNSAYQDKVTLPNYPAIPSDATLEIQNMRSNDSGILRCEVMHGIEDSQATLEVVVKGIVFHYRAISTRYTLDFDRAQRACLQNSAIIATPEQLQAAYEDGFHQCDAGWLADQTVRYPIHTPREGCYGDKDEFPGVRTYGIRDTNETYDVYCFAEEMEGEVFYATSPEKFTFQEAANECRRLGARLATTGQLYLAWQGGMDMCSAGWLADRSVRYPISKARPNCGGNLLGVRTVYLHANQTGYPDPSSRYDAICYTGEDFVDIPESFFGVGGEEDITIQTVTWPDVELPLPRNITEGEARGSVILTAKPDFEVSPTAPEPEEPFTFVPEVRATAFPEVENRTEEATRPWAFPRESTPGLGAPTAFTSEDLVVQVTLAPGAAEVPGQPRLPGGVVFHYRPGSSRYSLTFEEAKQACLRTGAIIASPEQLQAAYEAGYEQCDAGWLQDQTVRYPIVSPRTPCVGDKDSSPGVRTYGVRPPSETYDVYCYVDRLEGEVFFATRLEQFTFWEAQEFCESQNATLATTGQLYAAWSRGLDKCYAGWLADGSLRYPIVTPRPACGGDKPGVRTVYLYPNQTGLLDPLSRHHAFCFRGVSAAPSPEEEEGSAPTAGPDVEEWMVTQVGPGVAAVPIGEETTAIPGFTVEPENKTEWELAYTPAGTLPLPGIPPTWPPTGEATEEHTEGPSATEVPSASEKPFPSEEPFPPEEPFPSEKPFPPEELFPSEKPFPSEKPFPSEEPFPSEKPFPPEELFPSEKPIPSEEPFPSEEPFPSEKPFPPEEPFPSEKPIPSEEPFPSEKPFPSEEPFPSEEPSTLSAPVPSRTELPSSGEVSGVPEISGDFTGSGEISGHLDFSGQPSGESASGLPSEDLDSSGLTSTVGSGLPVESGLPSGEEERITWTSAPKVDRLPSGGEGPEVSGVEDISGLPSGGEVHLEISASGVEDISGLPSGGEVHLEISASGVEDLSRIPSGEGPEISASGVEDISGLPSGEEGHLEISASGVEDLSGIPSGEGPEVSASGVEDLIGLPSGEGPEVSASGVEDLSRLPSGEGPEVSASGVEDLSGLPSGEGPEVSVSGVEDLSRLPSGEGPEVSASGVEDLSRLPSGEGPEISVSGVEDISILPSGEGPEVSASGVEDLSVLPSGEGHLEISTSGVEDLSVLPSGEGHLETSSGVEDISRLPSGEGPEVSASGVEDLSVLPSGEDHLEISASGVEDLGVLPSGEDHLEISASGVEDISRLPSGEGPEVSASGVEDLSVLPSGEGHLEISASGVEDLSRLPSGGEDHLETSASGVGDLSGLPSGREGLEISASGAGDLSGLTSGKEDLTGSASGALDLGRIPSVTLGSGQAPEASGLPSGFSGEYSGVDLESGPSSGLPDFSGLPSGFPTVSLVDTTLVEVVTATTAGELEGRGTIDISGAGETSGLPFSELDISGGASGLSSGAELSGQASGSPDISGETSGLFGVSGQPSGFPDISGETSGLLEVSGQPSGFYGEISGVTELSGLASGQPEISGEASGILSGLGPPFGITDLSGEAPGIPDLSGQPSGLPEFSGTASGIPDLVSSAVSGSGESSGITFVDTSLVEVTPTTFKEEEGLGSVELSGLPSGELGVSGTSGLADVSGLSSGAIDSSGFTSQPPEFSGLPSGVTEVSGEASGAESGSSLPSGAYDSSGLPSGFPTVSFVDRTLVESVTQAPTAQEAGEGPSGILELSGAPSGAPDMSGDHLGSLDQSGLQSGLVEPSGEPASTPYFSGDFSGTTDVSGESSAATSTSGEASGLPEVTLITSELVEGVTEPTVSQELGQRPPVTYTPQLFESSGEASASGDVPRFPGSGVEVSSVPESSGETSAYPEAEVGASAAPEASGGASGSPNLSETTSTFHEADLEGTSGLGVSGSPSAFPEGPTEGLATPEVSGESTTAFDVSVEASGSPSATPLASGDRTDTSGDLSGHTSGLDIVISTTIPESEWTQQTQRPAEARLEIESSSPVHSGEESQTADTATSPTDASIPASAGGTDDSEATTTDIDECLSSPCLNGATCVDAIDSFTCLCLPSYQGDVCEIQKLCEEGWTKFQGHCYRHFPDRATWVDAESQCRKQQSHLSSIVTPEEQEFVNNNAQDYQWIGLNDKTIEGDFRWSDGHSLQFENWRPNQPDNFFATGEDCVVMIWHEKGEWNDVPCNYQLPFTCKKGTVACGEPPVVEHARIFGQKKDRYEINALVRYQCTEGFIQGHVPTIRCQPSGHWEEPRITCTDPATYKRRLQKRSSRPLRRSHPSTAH

These are yes or no findings as the source states them, for the method shown. In cells and extracts the contact can be indirect. Binding calls can cover weak binding; strength is not graded here.

This experiment has as its target aggrecan G1 domain (bovine (purified from bovine articular cartilage)) (UniProt P13608). Nature of the experiment: co-purification from tissue; complex of AG1 and LP purified from bovine articular cartilage, as described previously (ref. 33).

B1: cartilage link protein (protein, UniProt P55252 16-354)
chain: DHHSDNYTVDHDRVIHIQAENGPRLLVEAEQAKVFSRRGGNVTLPCKFYRDPTAFGSGTHKIRIKWTKLTSDYLKEVDVFVSMGYHKKTYGGYHGRVFLKGGSDNDASLVITDLTLEDYGRYKCEVIEGLEDDTAVVALDLQGVVFPYFPRLGRYNLNFHEAQQACLDQDAVIASFDQLYDAWRSGLDWCNAGWLSDGSVQYPITKPREPCGGQNTVPGVRNYGFWDKDKSRYDVFCFTSNFNGRFYYLIHPTKLTYDEAVQACLNDGAQIAKVGQIFAAWKLLGYDRCDAGWLADGSVRYPISRPRRRCSPSEAAVRFVGFPDKKHKLYGVYCFRAYN
On to B1, for which the binding result is “binds”.
